Experimental data as given in patent US10293027B2, “Methods for treating metabolic disorders using FGF” (Salk Institute for Biological Studies, priority 2010, dated 2019).
For some of these results: At least one compound was matched to its structure with a doubt left. Some of these results come from one statement about several compounds together.

Columns and labels:
Format in all cases: in vivo, mouse
FGF-1B and FGF-1D = FGF-1B and FGF-1D mRNA expression in liver and WAT of mice; conditions: TZD treatment of mice
ob/ob male mice = experiment: Daily FGF-1 or rosiglitazone treatment of ob/ob mice: fed blood glucose and body composition (Example 5); conditions: for blood glucose levels at 6 days: fed ob/ob male mice, one hour after treatment, FGF-1 0.5 mg/kg/day s.c., TZD 5 mg/kg/day p.o.; for time normoglycemic levels were maintained after the sixth dose / normoglycemic blood glucose levels maintained after the sixth dose: ob/ob mice; for time normoglycemic levels were maintained after the sixth dose: after the sixth daily dose; for normoglycemic blood glucose levels maintained after the sixth dose: monitored for 72 hrs after the sixth daily dose
Procedure: FIGS. 7A-7H. FGF-1 injection studies in rodents. (A) Fed blood glucose in ob/ob male mice treated with FGF-1 (0.5 mg/kg, s.c.), rosiglitazone (TZD, 5 mg/kg, p.o.), or vehicle. FGF-1 was administered once daily, and blood glucose levels were measured at day 0 (basal levels before FGF-1 injection), day 3, and day 6, 1 hour after injection. The values (±SE) shown are the average of the measurements of 5 animals in a group; (B) Sustained glucose lowering effects of FGF-1: Fed blood glucose levels in ob/ob mice at indicated time points after the last FGF-1 injection at day 6. (C-H): 72 hrs after the sixth dose, another dose was given and effects of FGF-1 and TZD on (C) body weight, (D) total body fat, (E) lean weight, (F) weight gain, (G) liver weight, and (H) heart weight were determined.
In Example 5, ob/ob male mice (8 wk old) were randomized into three groups and treated with daily subcutaneous (s.c.) injections of recombinant mouse FGF-1 (0.5 mg/kg in PBS), oral rosiglitazone (TZD, 5 mg/kg in 0.5% carboxymethyl cellulose), or vehicle. Blood glucose levels were measure in fed animals one hour after treatment. Total body composition analysis was performed using an EchoMRI-100™ (Echo Medical Systems, LLC).
Eight-week-old male ob/ob mice were treated with recombinant mouse FGF-1 (0.5 mg/kg/day, s.c. in 250 μl), rosiglitazone (TZD, 5 mg/kg/day, p.o. in 300 μl), or vehicle control (s.c. vehicle control 0.9% NaCl, 250 μl/mouse; p.o. vehicle control 0.5% CMC, 300 μl/mouse). Blood glucose was measured one hour after treatment at day 3 and day 6 using a standard protocol. (FIG. 7A).
Before treatment, all groups were severely hyperglycemic, as indicated by blood glucose levels of about 400 mg/dl. […] At 6 days, blood glucose levels were even further reduced to around 130-140 mg/dl for both groups. After the sixth dose, blood glucose levels were monitored for another 72 hrs. During this period, both FGF-1- and TZD-treated cohorts maintained normoglycemic levels (<140 mg/dl) for at least 48 hrs (FIG. 7B). At 72 hrs after the sixth dose, a final dose was given, and 12 hrs later, a total body composition analysis was performed by MRI followed by necropsy.

FGF-21 mRNA = experiment: FGF21 mRNA levels in WAT and liver of wild-type mice; conditions: rosiglitazone 5 mg/kg for 3 days p.o.
FGF-1A mRNA = FGF-1A mRNA levels in WAT of wild-type mice; conditions: rosiglitazone 5 mg/kg for 3 days p.o.

| Molecule | expression of FGF-1B and FGF-1D in liver and FGF-1B in WAT (FGF-1B and FGF-1D) | blood glucose levels at 6 days (ob/ob male mice) | time normoglycemic levels were maintained after the sixth dose (ob/ob male mice) | normoglycemic blood glucose levels maintained after the sixth dose (ob/ob male mice) | expression of FGF-21 in fasted liver (FGF-21 mRNA; overnight fast) | FGF-21 levels in WAT (FGF-21 mRNA; wild-type mice) | mRNA levels of FGF-1A in WAT (FGF-1A mRNA) |
| --- | --- | --- | --- | --- | --- | --- | --- |
| CN(CCOc1ccc(CC2SC(=O)NC2=O)cc1)c1ccccn1 (stereo not shown) [rosiglitazone, reference compound] | No changes in expression | 130 to 140 mg/dL | at least 48 hrs | < 140 mg/dL | reduced the expression of FGF-21 in fasted liver | no effects of rosiglitazone or HFD were observed in WAT | significantly increased the mRNA levels of FGF-1A in WAT |
| FGF-1: recombinant mouse FGF-1 (acidic fibroblast growth factor), a secreted protein that binds heparin and FGF receptors (protein, UniProt P61148 16-155, looked up) Fibroblast growth factor 1: FNLPLGNYKKPKLLYCSNGGHFLRILPDGTVDGTRDRSDQHIQLQLSAESAGEVYIKGTETGQYLAMDTEGLLYGSQTPNEECLFLERLEENHYNTYTSKKHAEKNWFVGLKKNGSCKRGPRTHYGQKAILFLPLPVSSD |  | 130 to 140 mg/dL | at least 48 hrs | < 140 mg/dL |  |  |  |
